Here are results for 13 molecules from patent publication US9745339B2 (GRAFFINITY PHARMACEUTICALS GMBH, priority 2012, dated 2017).

Data set [1] deals with poly-IgG from human serum (h-poly-IgG). Nature of the data set: Microtiter plate chromatography of resins: binding and elution of human poly-IgG. The protocol: (§1) Resins were assessed in packed mode by microtiter plate chromatography. For each column, approximately 30 μl of resin were transferred to a 384-well filter plate and sealed with appropriate top fits. Columns with rProtein A SEPHAROSE 4 FF and MABSORBENT A2P HF were included as controls.
(§2) Either 3.3 cv of whole IgGs dissolved at 0.5 mg ml^−1 in PBS or undiluted host cell proteins (HCP) were injected onto columns.
(§3) Unbound protein was washed from columns with 5 cv of PBS prior to elution with 5 cv of glycine buffer at pH 2.5. […] During injection of samples, speed was reduced to 10 g and centrifugation time increased to 5-10 min. Effluent fractions were collected in 384-well plates and concentrations of protein were analyzed by Bradford assay. Protein masses mi, mft and me (see below) were calculated as the product of fraction volume and measured protein concentration.
(§4) The fraction of bound protein was calculated as the difference between the total mass of protein injected mi and the mass of protein detected in the flowthrough mft, divided by the total mass of protein injected.
(§5) The yield of protein was calculated as the mass of protein eluted me, divided by the mass of protein injected mi.
(§6) The fraction of bound protein and the yield of protein were calculated for each resin based on data for whole IgG-antibodies. In the case of host cell proteins, only the fraction of bound protein is given. Selectivity of resins was calculated from data for Bevacizumab whole IgG and host cell proteins. Due to limited experimental precision, selectivity was truncated for values beyond 10.

The test system of data set [2] is Tocilizumab. Description: Microtiter plate chromatography of resins: binding and elution of Tocilizumab. The protocol: as §1, §2, §3, §4, §5, §6
[3] abbreviates: mass eluted (glycine pH 2.5) / mass injected.
The mark [4] stands for this setting: L55-73: estimated values based on the knowledge obtained from L01-L54.

Consider `CCc1nc2cc(C(=O)Nc3nc(-c4ccccn4)cs3)ccc2n1CCCN` [Ligand L43, 1-(3-Amino-1-propyl)-2-ethylbenzimidazole-5-carboxylic acid N-[4-(2-pyridyl)thiazol-2-yl] amide], for which the “h-poly-IgG Yield” value in data set [1] (setting [3]) worked out at 94%. Besides, in data set [2] (setting [3]), the “Tocilizumab Yield” value turned out to be 108%.
On to `CCc1nc2cc(C(=O)Nc3nnc(-c4ccco4)s3)ccc2n1CCCN` [Ligand L44, 1-(3-Amino-1-propyl)-2-ethylbenzimidazole-5-carboxylic acid N-[5-(2-furyl)-1,3,4-thiadiazol-2-yl] amide], for which the “h-poly-IgG Yield” value in data set [1] (setting [3]) stood at 96%. Moreover, in data set [2] (setting [3]), the “Tocilizumab Yield” value amounted to 106%.
On the same counts, the results for `COc1nc2cc(C(=O)Nc3nnc(-c4ccco4)s3)ccc2n1CCCN` [Ligand L45, 1-(3-Amino-1-propyl)-2-methoxybenzimidazole-5-carboxylic acid N-[5-(2-furyl)-1,3,4-thiadiazol-2-yl] amide] are 99% and 102%.
The like results for `NCCCn1cnc2cc(C(=O)Nc3nc(-c4cccnc4)cs3)ccc21` [Ligand L46, 1-(3-Amino-1-propyl)benzimidazole-5-carboxylic acid N-[4-(3-pyridyl)thiazol-2-yl] amide] were, in that order, 98% and 109%.
On the same counts, the results for `Cc1nc2cc(C(=O)Nc3nc(-c4ccncc4)cs3)ccc2n1CCCN` [Ligand L51, 1-(3-Amino-1-propyl)-2-methylbenzimidazole-5-carboxylic acid N-[4-(4-pyridyl)thiazol-2-yl] amide] are 98% and 100%.
With `N[C@@H](CCC(=O)NCCOCCOCCn1cnc2cc(C(=O)Nc3nnc(-c4ccco4)s3)ccc21)C(=O)NCCOCCOCCn1cnc2cc(C(=O)Nc3nnc(-c4ccco4)s3)ccc21` [Ligand L53], the “h-poly-IgG Yield” value in data set [1] (setting [3]) worked out at 95%. In data set [2] (setting [3]), the “Tocilizumab Yield” value is given as 91%.
As for `Cc1nc2cc(C(=O)Nc3nnc(-c4ccco4)s3)ccc2n1CCOCCOCCNC(=O)CC[C@H](N)C(=O)NCCOCCOCCn1c(C)nc2cc(C(=O)Nc3nnc(-c4ccco4)s3)ccc21` [Ligand L54], in data set [1] (setting [3]), the “h-poly-IgG Yield” value is on record as 99%. For the same molecule, in data set [2] (setting [3]), the “Tocilizumab Yield” value was 100%.
On to `NCCCn1cnc2cc(C(=O)Nc3nc(-c4ccco4)ns3)ccc21` [Ligand L55, 1-(3-Amino-1-propyl)benzimidazole-5-carboxylic acid N-[3-(2-furyl)-1,2,4-thiadiazol-5-yl] amide], for which the “h-poly-IgG Yield” value in data set [1] (setting [4]) is more than 70%. Also, in data set [2] (setting [4]), the “Tocilizumab Yield” value is on record as more than 80%.
The like results for `NCCCn1cnc2cc(C(=O)Nc3nnc(-c4ccoc4)s3)ccc21` [Ligand L56, 1-(3-Amino-1-propyl)benzimidazole-5-carboxylic acid N-[5-(3-furyl)-1,3,4-thiadiazol-2-yl] amide] were, in that order, more than 70% and more than 80%.
On the same counts, the results for `NCCCn1cnc2cc(C(=O)Nc3nc(-c4ccco4)cs3)ccc21` [Ligand L57, 1-(3-Amino-1-propyl)benzimidazole-5-carboxylic acid N-[4-(2-furyl)thiazol-2-yl] amide] are more than 70% and more than 80%.
Consider `NCCCn1cnc2cc(C(=O)Nc3ncc(-c4ccco4)s3)ccc21` [Ligand L58, 1-(3-Amino-1-propyl)benzimidazole-5-carboxylic acid N-[5-(2-furyl)thiazol-2-yl] amide], for which, in data set [1] (setting [4]), the “h-poly-IgG Yield” value is recorded as more than 70%. Also, in data set [2] (setting [4]), the “Tocilizumab Yield” value is recorded as more than 80%.
With `NCCCn1cnc2cc(C(=O)Nc3ccc(-c4ccco4)nn3)ccc21` [Ligand L59, 1-(3-Amino-1-propyl)benzimidazole-5-carboxylic acid N-[6-(2-furyl)pyridazin-3-yl] amide], in data set [1] (setting [4]), the “h-poly-IgG Yield” value is more than 70%. Also, the “Tocilizumab Yield” value in data set [2] (setting [4]) was more than 80%.
Consider `Cc1nc2cc(C(=O)Nc3nc(-c4ccco4)ns3)ccc2n1CCCN` [Ligand L60, 1-(3-Amino-1-propyl)-2-methylbenzimidazole-5-carboxylic acid N-[3-(2-furyl)-1,2,4-thiadiazol-5-yl] amide], for which the “h-poly-IgG Yield” value in data set [1] (setting [4]) is given as more than 70%. Further, the “Tocilizumab Yield” value in data set [2] (setting [4]) is more than 80%.
